# PubChem BioAssay AID1224829 | NIAID – 2016
# Screen: 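Follow-up of TLR4-NF-kappaB regulators using six separate siRNAs for each gene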 (follow-up of hits)
# System: mouse RAW264.7 G9 macrophage reporter cells
# Reagent: single siRNA against mouse genes, 100 nM
# Time to read-out: 2 days of siRNA knock-down, then 40 min of LPS before fixing
# Treatment: LPS (Salmonella minnesota R595) at 10 ng/ml
# Detection: 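Imaging of GFP-p65 after 40 min of LPS; nuclear over perinuclear ring intensity ratio, scaled to plate median and non-targeting control wells, given as z-score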
# Direction: p65 translocation z-score and gene median z-score, per vendor: higher = more nuclear NF-kappaB p65 after LPS
# Hit rule: 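An siRNA is called active when the mean z-score of its two replicates is above 2 or below -2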
# Calls: active = changed p65 translocation (either direction); inactive = no clear change
# Shown is a random part of about 3,800 deposited reagents. 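Calls cover raised and lowered translocation; gene median uses one vendor's three siRNAs; qiagen siRNAs acted more weakly than ambion siRNAs.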 Unmarked entries are inactive. The numbers tell different reagents against one gene apart. No sequences are given here.
gene,reagent no.,siRNA vendor or control pool,"p65 translocation z-score, replicate mean","p65 translocation z-score, replicate 1","p65 translocation z-score, replicate 2","gene median z-score, per vendor"
Kash5 (KASH domain containing 5),1,ambion single siRNA,-0.645,-0.274,-1.02,0.14
Kash5 (KASH domain containing 5),2,ambion single siRNA,0.143,0.353,-0.0667,0.14
Kash5 (KASH domain containing 5),3,ambion single siRNA,0.531,0.716,0.346,0.14
Kash5 (KASH domain containing 5),4,qiagen single siRNA,-2.34 (active),-1.28,-3.4,-0.528
Kash5 (KASH domain containing 5),5,qiagen single siRNA,-0.528,-0.528,,-0.528
Kash5 (KASH domain containing 5),6,qiagen single siRNA,3.04 (active),1.03,5.05,-0.528
Cox6b2 (cytochrome c oxidase subunit 6B2),1,ambion single siRNA,2.05 (active),2.12,1.98,-0.202
Cox6b2 (cytochrome c oxidase subunit 6B2),2,ambion single siRNA,-2.51 (active),-2.03,-2.99,-0.202
Cox6b2 (cytochrome c oxidase subunit 6B2),3,ambion single siRNA,-0.725,1.63,-3.08,-0.202
Cox6b2 (cytochrome c oxidase subunit 6B2),4,qiagen single siRNA,0.0397,-0.682,0.761,0.0738
Cox6b2 (cytochrome c oxidase subunit 6B2),5,qiagen single siRNA,0.0738,0.196,-0.0488,0.0738
Cox6b2 (cytochrome c oxidase subunit 6B2),6,qiagen single siRNA,,,,0.0738
Hivep2,1,ambion single siRNA,-2.82 (active),-3.51,-2.13,-1.91
Hivep2,2,ambion single siRNA,1.47,1.88,1.06,-1.91
Hivep2,3,ambion single siRNA,-1.94,-2.19,-1.68,-1.91
Hivep2,4,qiagen single siRNA,1.53,0.823,2.24,0.656
Hivep2,5,qiagen single siRNA,1.75,0.488,3.02,0.656
Hivep2,6,qiagen single siRNA,-0.951,-2.32,0.416,0.656
Tns4 (tensin 4),1,ambion single siRNA,-2.17 (active),-3.17,-1.18,-2.17
Tns4 (tensin 4),2,ambion single siRNA,0.577,0.696,0.458,-2.17
Tns4 (tensin 4),3,ambion single siRNA,-5.24 (active),-5.26,-5.22,-2.17
Tns4 (tensin 4),4,qiagen single siRNA,1.68,1.43,1.93,1.41
Tns4 (tensin 4),5,qiagen single siRNA,0.543,-0.304,1.39,1.41
Tns4 (tensin 4),6,qiagen single siRNA,1.48,0.859,2.09,1.41
Sytl5 (synaptotagmin-like 5),1,ambion single siRNA,0.835,1.76,-0.0916,-0.8
Sytl5 (synaptotagmin-like 5),2,ambion single siRNA,-0.8,-0.111,-1.49,-0.8
Sytl5 (synaptotagmin-like 5),3,ambion single siRNA,-4 (active),-4.26,-3.74,-0.8
Sytl5 (synaptotagmin-like 5),4,qiagen single siRNA,1.79,0.484,3.1,0.189
Sytl5 (synaptotagmin-like 5),5,qiagen single siRNA,-0.968,-1.83,-0.105,0.189
Sytl5 (synaptotagmin-like 5),6,qiagen single siRNA,0.906,-0.318,2.13,0.189
Ly6g6d (lymphocyte antigen 6 family member G6D),1,ambion single siRNA,-0.453,-0.0326,-0.873,-0.453
Ly6g6d (lymphocyte antigen 6 family member G6D),2,ambion single siRNA,0.83,1.19,0.472,-0.453
Ly6g6d (lymphocyte antigen 6 family member G6D),3,ambion single siRNA,-4.86 (active),-5.66,-4.05,-0.453
Ly6g6d (lymphocyte antigen 6 family member G6D),4,qiagen single siRNA,0.983,0.294,1.67,-1.4
Ly6g6d (lymphocyte antigen 6 family member G6D),5,qiagen single siRNA,-2.64 (active),-2.53,-2.75,-1.4
Ly6g6d (lymphocyte antigen 6 family member G6D),6,qiagen single siRNA,-1.44,-0.28,-2.6,-1.4
"Adipoq (adiponectin, C1Q and collagen domain containing)",1,ambion single siRNA,-0.94,-0.628,-1.25,-1.88
"Adipoq (adiponectin, C1Q and collagen domain containing)",2,ambion single siRNA,-1.88,-2.48,-1.28,-1.88
"Adipoq (adiponectin, C1Q and collagen domain containing)",3,ambion single siRNA,-6.07 (active),-7.04,-5.09,-1.88
"Adipoq (adiponectin, C1Q and collagen domain containing)",4,qiagen single siRNA,1.38,1.12,1.63,-0.52
"Adipoq (adiponectin, C1Q and collagen domain containing)",5,qiagen single siRNA,-0.52,-0.639,-0.4,-0.52
"Adipoq (adiponectin, C1Q and collagen domain containing)",6,qiagen single siRNA,-3.86 (active),-3.24,-4.47,-0.52
Sgpl1 (sphingosine phosphate lyase 1),1,ambion single siRNA,0.236,0.38,0.0921,-0.443
Sgpl1 (sphingosine phosphate lyase 1),2,ambion single siRNA,-0.223,0.532,-0.978,-0.443
Sgpl1 (sphingosine phosphate lyase 1),3,ambion single siRNA,-1.62,-1.58,-1.66,-0.443
Sgpl1 (sphingosine phosphate lyase 1),4,qiagen single siRNA,1.38,-0.43,3.2,1.24
Sgpl1 (sphingosine phosphate lyase 1),5,qiagen single siRNA,2.42 (active),1.28,3.55,1.24
Sgpl1 (sphingosine phosphate lyase 1),6,qiagen single siRNA,-0.0583,-1.31,1.19,1.24
Pepf (pepsinogen F),1,ambion single siRNA,-3.34 (active),-3.29,-3.4,-2.12
Pepf (pepsinogen F),2,ambion single siRNA,-1.74,-1.37,-2.12,-2.12
Pepf (pepsinogen F),3,ambion single siRNA,0.241,0.241,,-2.12
Pepf (pepsinogen F),4,qiagen single siRNA,1.89,1.89,1.89,-0.594
Pepf (pepsinogen F),5,qiagen single siRNA,-3.07 (active),-3.07,,-0.594
Pepf (pepsinogen F),6,qiagen single siRNA,-4.35 (active),-4.35,,-0.594

4 entries already listed, sorted by “p65 translocation z-score, replicate 2”, high to low.
gene,reagent no.,siRNA vendor or control pool,"p65 translocation z-score, replicate mean","p65 translocation z-score, replicate 1","p65 translocation z-score, replicate 2","gene median z-score, per vendor"
Ly6g6d (lymphocyte antigen 6 family member G6D),4,qiagen single siRNA,0.983,0.294,1.67,-1.4
Ly6g6d (lymphocyte antigen 6 family member G6D),2,ambion single siRNA,0.83,1.19,0.472,-0.453
Ly6g6d (lymphocyte antigen 6 family member G6D),1,ambion single siRNA,-0.453,-0.0326,-0.873,-0.453
Ly6g6d (lymphocyte antigen 6 family member G6D),3,ambion single siRNA,-4.86 (active),-5.66,-4.05,-0.453
